Assay results from article PMC4103824.
These are yes or no findings as the source states them, for the method shown. Binding seen in cells or lysates may run through a third protein. Some entries that bind do so weakly or less than the wild type. Sequences can lack the tags named with a protein.

How the values were obtained:
[1] = target: T1, Myc-tagged full length AtLIK1 (protoplasts) (Arabidopsis thaliana) (UniProt C0LGN2); assay: co-IP; HA-CERK1 and Myc-LIK1 co-expressed in Arabidopsis Col-0 protoplasts; lysate in 50 mM Tris pH 7.5, 150 mM NaCl, 0.5% Triton X-100; precipitated with anti-Myc, blotted with anti-HA; before and at time points after chitin treatment
T1 sequence: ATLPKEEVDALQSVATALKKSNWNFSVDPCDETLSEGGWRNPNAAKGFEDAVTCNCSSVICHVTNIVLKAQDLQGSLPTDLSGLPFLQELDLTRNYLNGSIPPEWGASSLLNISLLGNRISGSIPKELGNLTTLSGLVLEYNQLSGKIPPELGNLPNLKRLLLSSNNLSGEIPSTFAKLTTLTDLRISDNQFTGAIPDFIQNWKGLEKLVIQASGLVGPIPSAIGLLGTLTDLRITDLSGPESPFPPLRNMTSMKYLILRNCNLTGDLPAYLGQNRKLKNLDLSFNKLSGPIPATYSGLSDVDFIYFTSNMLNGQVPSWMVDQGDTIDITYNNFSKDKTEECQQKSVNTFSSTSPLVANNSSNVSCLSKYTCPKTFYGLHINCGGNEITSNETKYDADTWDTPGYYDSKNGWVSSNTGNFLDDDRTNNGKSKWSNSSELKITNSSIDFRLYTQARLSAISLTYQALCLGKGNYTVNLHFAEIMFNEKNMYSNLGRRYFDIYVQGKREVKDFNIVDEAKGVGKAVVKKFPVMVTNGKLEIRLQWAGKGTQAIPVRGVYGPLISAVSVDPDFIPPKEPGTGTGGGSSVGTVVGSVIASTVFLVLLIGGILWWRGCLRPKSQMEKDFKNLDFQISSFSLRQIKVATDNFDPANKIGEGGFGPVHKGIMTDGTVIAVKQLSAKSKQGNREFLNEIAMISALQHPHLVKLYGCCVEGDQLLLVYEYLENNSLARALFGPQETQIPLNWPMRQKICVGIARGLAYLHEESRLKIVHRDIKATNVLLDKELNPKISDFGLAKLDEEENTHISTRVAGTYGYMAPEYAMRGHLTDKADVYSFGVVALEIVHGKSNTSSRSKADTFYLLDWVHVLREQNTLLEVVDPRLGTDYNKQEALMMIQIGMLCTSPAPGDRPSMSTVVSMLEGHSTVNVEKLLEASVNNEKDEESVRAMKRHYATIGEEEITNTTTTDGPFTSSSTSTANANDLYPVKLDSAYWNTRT

[2] = target: T2, CERK1 (endogenous, Col-0 seedlings) (Arabidopsis thaliana (endogenous in Col-0 seedlings)) (UniProt A8R7E6); assay: co-IP; 10-day-old transgenic Col-0 seedlings expressing LIK1-4×Myc; precipitated with anti-CERK1 antibody, detected with anti-Myc; before and at time points after chitooctaose treatment
T2 sequence: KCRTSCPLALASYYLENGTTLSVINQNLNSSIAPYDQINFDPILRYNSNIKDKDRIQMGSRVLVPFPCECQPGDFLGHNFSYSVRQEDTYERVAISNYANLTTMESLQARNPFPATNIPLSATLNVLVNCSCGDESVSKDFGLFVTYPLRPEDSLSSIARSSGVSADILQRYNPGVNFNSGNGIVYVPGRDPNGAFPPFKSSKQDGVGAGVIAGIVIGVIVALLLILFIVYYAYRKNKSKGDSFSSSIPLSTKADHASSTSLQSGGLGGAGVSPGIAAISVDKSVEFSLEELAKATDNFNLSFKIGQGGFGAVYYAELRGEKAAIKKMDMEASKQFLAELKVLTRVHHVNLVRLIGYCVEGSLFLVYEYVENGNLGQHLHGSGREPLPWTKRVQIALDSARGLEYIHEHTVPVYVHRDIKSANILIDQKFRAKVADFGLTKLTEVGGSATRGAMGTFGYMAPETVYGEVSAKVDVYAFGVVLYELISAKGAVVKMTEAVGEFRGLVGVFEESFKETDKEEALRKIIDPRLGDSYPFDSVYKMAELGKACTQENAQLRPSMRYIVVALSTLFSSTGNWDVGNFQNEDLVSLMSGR

B1: HA-tagged full-length AtCERK1 (receptor, UniProt A8R7E6 24-617)
chain: KCRTSCPLALASYYLENGTTLSVINQNLNSSIAPYDQINFDPILRYNSNIKDKDRIQMGSRVLVPFPCECQPGDFLGHNFSYSVRQEDTYERVAISNYANLTTMESLQARNPFPATNIPLSATLNVLVNCSCGDESVSKDFGLFVTYPLRPEDSLSSIARSSGVSADILQRYNPGVNFNSGNGIVYVPGRDPNGAFPPFKSSKQDGVGAGVIAGIVIGVIVALLLILFIVYYAYRKNKSKGDSFSSSIPLSTKADHASSTSLQSGGLGGAGVSPGIAAISVDKSVEFSLEELAKATDNFNLSFKIGQGGFGAVYYAELRGEKAAIKKMDMEASKQFLAELKVLTRVHHVNLVRLIGYCVEGSLFLVYEYVENGNLGQHLHGSGREPLPWTKRVQIALDSARGLEYIHEHTVPVYVHRDIKSANILIDQKFRAKVADFGLTKLTEVGGSATRGAMGTFGYMAPETVYGEVSAKVDVYAFGVVLYELISAKGAVVKMTEAVGEFRGLVGVFEESFKETDKEEALRKIIDPRLGDSYPFDSVYKMAELGKACTQENAQLRPSMRYIVVALSTLFSSTGNWDVGNFQNEDLVSLMSGR
binding [1]: binds

B2: Myc-tagged LIK1 (transgenic plants) (receptor, UniProt C0LGN2 27-1020)
chain: ATLPKEEVDALQSVATALKKSNWNFSVDPCDETLSEGGWRNPNAAKGFEDAVTCNCSSVICHVTNIVLKAQDLQGSLPTDLSGLPFLQELDLTRNYLNGSIPPEWGASSLLNISLLGNRISGSIPKELGNLTTLSGLVLEYNQLSGKIPPELGNLPNLKRLLLSSNNLSGEIPSTFAKLTTLTDLRISDNQFTGAIPDFIQNWKGLEKLVIQASGLVGPIPSAIGLLGTLTDLRITDLSGPESPFPPLRNMTSMKYLILRNCNLTGDLPAYLGQNRKLKNLDLSFNKLSGPIPATYSGLSDVDFIYFTSNMLNGQVPSWMVDQGDTIDITYNNFSKDKTEECQQKSVNTFSSTSPLVANNSSNVSCLSKYTCPKTFYGLHINCGGNEITSNETKYDADTWDTPGYYDSKNGWVSSNTGNFLDDDRTNNGKSKWSNSSELKITNSSIDFRLYTQARLSAISLTYQALCLGKGNYTVNLHFAEIMFNEKNMYSNLGRRYFDIYVQGKREVKDFNIVDEAKGVGKAVVKKFPVMVTNGKLEIRLQWAGKGTQAIPVRGVYGPLISAVSVDPDFIPPKEPGTGTGGGSSVGTVVGSVIASTVFLVLLIGGILWWRGCLRPKSQMEKDFKNLDFQISSFSLRQIKVATDNFDPANKIGEGGFGPVHKGIMTDGTVIAVKQLSAKSKQGNREFLNEIAMISALQHPHLVKLYGCCVEGDQLLLVYEYLENNSLARALFGPQETQIPLNWPMRQKICVGIARGLAYLHEESRLKIVHRDIKATNVLLDKELNPKISDFGLAKLDEEENTHISTRVAGTYGYMAPEYAMRGHLTDKADVYSFGVVALEIVHGKSNTSSRSKADTFYLLDWVHVLREQNTLLEVVDPRLGTDYNKQEALMMIQIGMLCTSPAPGDRPSMSTVVSMLEGHSTVNVEKLLEASVNNEKDEESVRAMKRHYATIGEEEITNTTTTDGPFTSSSTSTANANDLYPVKLDSAYWNTRT
binding [2]: binds
